Laboratory results published in PubChem BioAssay AID2685 (National Center for Advancing Translational Sciences (NCATS), 2010).
This is one part of the list. Further columns of the screen follow, without active or inactive calls. Compounds called inactive in the main read-out are mostly missing here. The note in brackets gives the kind of curve behind each potency; many fits are weak.

Assay: qHTS Assay for Lipid Storage Modulators in Drosophila S3 Cells;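 on cell number change: cells counted by Cell Tracker Red CMTPX staining in the red channel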
Conditions: BODIPY lipid droplet fluorescence, 18-24 h; for cell number change: measured here: cell count max response, cells fed with added oleic acid
Outline: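 Drosophila S3 cells loaded with oleic acid (400 uM, as added) and compounds at several concentrations; lipid droplets imaged by 488-nm laser-scanning cytometry, 500–530 nm intensity and object ratio to cell channel. Percent activity normalized to 20 uM Triacsin C.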

[1] = measured here: lipid fluorescence (Fed channel) AC50, cells fed with added oleic acid
[2] = measured here: cell number channel AC50, cells fed with added oleic acid

CC(=O)Nc1cccc(C(=O)OC(C)C(=O)NCc2ccc3c(c2)OCO3)c1 (configuration not stated)
cell number change: 6.62%
AC50 [1]: 29.1 µM [falling, single point]

NC1=NC[C@H](Cc2ccccc2)N1CCCCC1CCCCC1
cell number change: -63.5%
AC50 [2]: 32.6 µM [falling, single point]
AC50 [1]: 13 µM [falling, partial curve]

CC(=O)Nc1ccc(-c2cc(C(=O)O)c3ccccc3n2)cc1
AC50 [2]: 0.92 µM [falling, single point]

Cc1c(S(=O)(=O)N2CCCC(C)C2)c(=O)n(C)c(=O)n1C (configuration not stated)
cell number change: -6.87%
AC50 [2]: 0.651 µM [falling, single point]
AC50 [1]: 16.4 µM [falling, partial curve, poor fit]

COc1cc(CNC(=O)CCn2nc(C)c3c(C)n(-c4ccccc4)nc3c2=O)cc(OC)c1OC
cell number change: -31.4%
AC50 [2]: 29.1 µM [falling, single point]

COc1ccc(CNC(=O)Cc2cccs2)cc1
cell number change: -3.04%
AC50 [1]: 6.51 µM [rising, single point]

Cn1nc(-c2ccccc2)c2cc(C(=O)O)sc21
cell number change: 7.17%
AC50 [1]: 0.116 µM [falling, full curve, poor fit]

CCN(CC(=O)Nc1c(F)cccc1F)C(=O)C1CC(=O)N(CCc2ccccc2)C1 (configuration not stated)
cell number change: 18.3%
AC50 [1]: 7.31 µM [rising, partial curve, poor fit]

COC(=O)c1ccc(C2NC(=O)NC(C)=C2C(=O)N(C)C)cc1 (configuration not stated)
cell number change: -16%
AC50 [1]: 25.9 µM [falling, partial curve]

O=C(CSCc1c(Cl)cccc1Cl)NN1C(=O)c2ccccc2C1=O
cell number change: -1.2%
AC50 [1]: 29.1 µM [rising, single point]

Cc1[nH]c2ccccc2c1C(=O)Cn1c(=O)oc2ccccc21
cell number change: 18.5%
AC50 [1]: 5.8 µM [rising, single point]

Cc1csc(SCc2ccc(C(=O)O)cc2)n1
cell number change: 2.9%

Cn1c(CNS(=O)(=O)c2ccc(F)cc2)n[nH]c1=S
cell number change: -4.9%

CC(=O)N/N=C(\C)C1COc2ccccc2O1 (configuration not stated)
cell number change: 8.52%

O=C(Nc1cccc(S(=O)(=O)NC2=NCCCCC2)c1)c1ccc(Cl)cc1
AC50 [1]: 14.6 µM [falling, single point]

C/C(=N\O)C(=O)NCCN1CCCCC1
cell number change: -32.7%
AC50 [2]: 25.9 µM [falling, single point]
AC50 [1]: 10.3 µM [falling, partial curve]

Cc1cc(NC(=O)c2cccs2)no1
cell number change: 19%
AC50 [1]: 7.31 µM [rising, partial curve, poor fit]

Cc1ccccc1C(=O)Nc1nnc(-c2cccnc2)o1
cell number change: -15.7%
AC50 [2]: 0.731 µM [falling, partial curve, poor fit]
AC50 [1]: 0.651 µM [falling, single point]

O=C(Nc1cnc2sccn2c1=O)c1ccccc1Cl
cell number change: -22.2%
AC50 [2]: 0.231 µM [falling, full curve, poor fit]

NNc1ncnc2scc(-c3ccc(Cl)cc3)c12
cell number change: 34.2%
AC50 [2]: 3.26 µM [rising, partial curve]
AC50 [1]: 4.11 µM [rising, partial curve]

S=c1nn[nH]n1C12CC3CC(CC(C3)C1)C2
cell number change: -4.82%

O=c1[nH]c2ccccc2cc1CN(Cc1ccco1)S(=O)(=O)c1ccc(F)cc1
cell number change: -24.5%
AC50 [1]: 32.6 µM [falling, partial curve, poor fit]

CCOc1ccc(Cc2nnc(N)s2)cc1OCC
cell number change: 98%
AC50 [2]: 9.2 µM [rising, partial curve]
AC50 [1]: 3.66 µM [rising, partial curve]

COc1cccc(/C=N/n2cnc3ccccc32)c1OC
cell number change: 65.4%
AC50 [2]: 1.16 µM [rising, full curve]
AC50 [1]: 1.46 µM [rising, partial curve]

COc1ccc(C(=O)NCCN=C2NS(=O)(=O)c3ccccc32)cc1
cell number change: -14.5%
AC50 [1]: 0.398 µM [falling, single point]

COCCn1c(=NC(=O)c2ccc(S(=O)(=O)N3CCOCC3)cc2)sc2cc(S(N)(=O)=O)ccc21
cell number change: -37.7%
AC50 [2]: 10.3 µM [falling, partial curve]

COc1cccc(-c2ncc3ccccc3c2COC(=O)N2CCOCC2)c1
cell number change: -12%
AC50 [1]: 0.116 µM [rising, full curve]

CS(=O)(=O)N(CC(=O)Nc1ccccc1C(=O)NCc1ccco1)c1ccc2c(c1)OCCO2
AC50 [2]: 1.16 µM [rising, partial curve]

Cc1cc(C(=O)OCC(=O)N2CC(=O)Nc3ccccc32)no1
cell number change: -9.38%
AC50 [1]: 5.17 µM [falling, full curve, poor fit]

Cc1cccc2sc(NC(=O)C3CC3)nc12
cell number change: -9.47%

O=C(c1ccc2nc(Cc3ccccc3F)oc2c1)N1CCCC1
cell number change: -9.97%
AC50 [1]: 0.00517 µM [falling, full curve, poor fit]

Cc1cccc(N(C)S(=O)(=O)c2c(C)[nH]c(C)c2C(=O)N2CCCC2)c1
AC50 [1]: 29.1 µM [falling, single point]

Cc1noc(C)c1S(=O)(=O)N1CCCC(C(=O)Nc2ccc(Cl)cn2)C1 (configuration not stated)
cell number change: -1.36%
AC50 [1]: 7.31 µM [falling, single point]

CCOc1ccc(N(CC(=O)NC2CC2)S(=O)(=O)c2ccc(C)cc2)cc1
cell number change: 22.6%

COc1cc(OC)c(C(=O)OCC(=O)N2CCOCC2)cc1OC
AC50 [1]: 0.231 µM [falling, full curve, poor fit]

Cc1ccc(NC(=O)Cc2nc(COC(=O)Cc3cccc(C(F)(F)F)c3)cs2)cc1
cell number change: -8.08%
AC50 [2]: 0.116 µM [falling, full curve, poor fit]

COCCN(C(=O)C1CC(=O)N(Cc2ccccc2)C1)c1nc(-c2ccc([N+](=O)[O-])cc2)cs1 (configuration not stated)
cell number change: -5.33%
AC50 [1]: 14.6 µM [falling, partial curve]

Cc1ccc2cc(CCNC(=O)Cc3cccs3)c(=O)[nH]c2c1
cell number change: -1.97%
AC50 [1]: 1.46 µM [rising, partial curve]

COc1ccc(N(CC(=O)NCC2CCCO2)S(=O)(=O)c2ccc(C)cc2)cc1OC (configuration not stated)
cell number change: -0.724%
AC50 [1]: 6.51 µM [falling, partial curve, poor fit]

COc1ccc(OC)c(/C=N/NC(=O)CCc2c(C)n[nH]c2C)c1
cell number change: 17.4%
AC50 [1]: 3.66 µM [rising, partial curve, poor fit]

Cc1sc2nc(CSc3ccccc3)nc(N3CCN(C)CC3)c2c1C
cell number change: -1.06%

CCC(=O)N1CCc2cc(S(=O)(=O)CCC(=O)Nc3cccc(F)c3)ccc21
AC50 [1]: 0.58 µM [falling, single point]

Cc1cccc(C(=O)NCCCn2ccnc2)c1C
AC50 [2]: 6.51 µM [falling, single point]

COc1cccc(C(=O)N2CCN(C(=O)c3cccc4ccccc34)CC2)c1OC
cell number change: -9.23%

COc1cc(Cl)cc(C=O)c1OCC(=O)O
cell number change: -0.366%
AC50 [1]: 6.51 µM [falling, single point]

COC(=O)c1ccccc1NC(=O)c1ccc(F)cc1
cell number change: 1.22%
AC50 [1]: 6.51 µM [rising, single point]

O=C(NCC(=O)N(Cc1ccco1)C(C(=O)NC1CCCC1)c1cccnc1)c1cccs1 (configuration not stated)
cell number change: 13.3%
AC50 [2]: 0.00411 µM [rising, full curve, poor fit]

CCCCCc1ccc(OCCCC[n+]2ccccc2)c(CCCCC)c1
cell number change: -78.8%
AC50 [2]: 16.4 µM [falling, partial curve]
AC50 [1]: 20.6 µM [falling, single point]

COc1ccc(NC(=O)COC(=O)Cn2cnc3ccccc3c2=O)cc1OC
cell number change: 2.23%
AC50 [1]: 0.13 µM [falling, full curve, poor fit]

COC(=O)C(CCSC)NC(=O)C12CC3CC(CC(C3)C1)C2 (configuration not stated)
cell number change: -41.2%
AC50 [2]: 8.2 µM [falling, partial curve]
AC50 [1]: 1.46 µM [falling, partial curve]

O=c1sc2ccccc2n1COc1ccccc1
cell number change: 0.128%
AC50 [1]: 29.1 µM [rising, single point]

O=C(COC(=O)CNC(=O)c1ccccc1)Nc1ccc2c(c1)OCO2
cell number change: 5.41%
AC50 [1]: 0.116 µM [rising, full curve, poor fit]

CC(=O)NS(=O)(=O)c1ccc(NC(=O)CN2C(=O)C3C4C=CC(C4)C3C2=O)cc1 (configuration not stated)
cell number change: -66.7%
AC50 [2]: 0.58 µM [falling, full curve]

Cc1ccc(C(=O)NCC(=O)OCC(=O)Nc2cc(C)c(C)cc2[N+](=O)[O-])cc1
cell number change: 33.4%
AC50 [2]: 29.1 µM [rising, single point]
AC50 [1]: 29.1 µM [rising, partial curve]

CCOc1ccc(C(=O)N2CCN(c3cccc(C)c3C)CC2)cc1
cell number change: 47.4%
AC50 [2]: 20.6 µM [rising, single point]

Cc1cccc(NC(=O)COc2ccccc2C)n1
cell number change: 14.9%
AC50 [1]: 0.58 µM [rising, single point]

COc1ccc(CCN2CC(C(=O)N(C)CC(=O)Nc3cccc(F)c3)CC2=O)cc1OC (configuration not stated)
cell number change: 23.7%
AC50 [1]: 29.1 µM [rising, single point]

O=C1OCCC1Sc1nc2cc(Cl)ccc2s1 (configuration not stated)
cell number change: 13%
AC50 [1]: 0.651 µM [falling, full curve, poor fit]

O=C(Cc1ccccc1)N1CCC(c2nc3ccccc3[nH]2)CC1
cell number change: 17.2%
AC50 [1]: 0.146 µM [falling, full curve, poor fit]

COC(=O)CSc1nc2c(cnn2-c2ccc(Cl)cc2)c(=O)[nH]1
cell number change: 31%

COC(=O)C1=C(NC(=O)c2cccc(OC)c2)CCS1
cell number change: 26.3%

Cc1ccc(NC(=O)CSc2nnc(NC(=O)c3ccc(S(=O)(=O)N4CCOCC4)cc3)s2)cc1
cell number change: -17.2%
AC50 [2]: 3.26 µM [falling, partial curve]
